Some of the results follow.
Legend:
Assay in all cases: log2 fold change, soluble protein after heating vs DMSO (PISA); higher = thermal stabilisation; K562 lysate, 10 uM; active = over 0.2 and 3.5 SD of the protein, either way, in both replicates (recomputed)
[1] = compound: CN1CC[C@H](c2c(O)cc(O)c3c(=O)cc(-c4ccccc4Cl)oc23)[C@H](O)C1 [alvocidib]
Outline: (§1)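 To prepare the extract, K562 pellets were dounce-homogenised in PBS pH 7.4 with 1 mM MgCl2, giving crude material at 1 mg/mL protein. This was treated with 10 μM compound for 30 min, then heated in aliquots for 3 min over 48°C-58°C before pooling and addition of NP-40 to 0.5% at 4°C. Centrifugation at 21,000xg for 90 min left soluble protein in the supernatant, which TMTpro 16plex LC-MS/MS quantified with equalised channel sums. Results are log-two fold changes in thermal stability compared with solvent controls, from duplicates.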

Amino acid sequences for entries named in this document (tags omitted). A change or cut given only in a name is not applied to a line headed by its entry.
UniProt P34059: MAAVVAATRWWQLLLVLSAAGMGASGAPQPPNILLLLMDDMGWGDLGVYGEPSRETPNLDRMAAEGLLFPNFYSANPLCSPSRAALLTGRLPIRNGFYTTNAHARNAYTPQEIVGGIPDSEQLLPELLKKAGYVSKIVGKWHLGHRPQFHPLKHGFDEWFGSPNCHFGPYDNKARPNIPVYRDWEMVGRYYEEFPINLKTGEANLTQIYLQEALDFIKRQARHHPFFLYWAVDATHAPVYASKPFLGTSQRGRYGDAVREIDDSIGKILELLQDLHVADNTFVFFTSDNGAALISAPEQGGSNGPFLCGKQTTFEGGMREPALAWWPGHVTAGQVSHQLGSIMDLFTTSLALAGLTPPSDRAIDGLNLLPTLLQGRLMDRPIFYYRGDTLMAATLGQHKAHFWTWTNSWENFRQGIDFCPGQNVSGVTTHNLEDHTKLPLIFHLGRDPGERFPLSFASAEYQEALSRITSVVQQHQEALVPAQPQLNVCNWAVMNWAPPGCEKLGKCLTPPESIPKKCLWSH
UniProt O95166, whole entry, looked up: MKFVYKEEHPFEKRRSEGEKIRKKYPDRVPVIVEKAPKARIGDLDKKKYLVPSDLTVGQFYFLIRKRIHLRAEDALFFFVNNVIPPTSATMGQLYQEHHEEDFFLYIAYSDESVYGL
UniProt P02792: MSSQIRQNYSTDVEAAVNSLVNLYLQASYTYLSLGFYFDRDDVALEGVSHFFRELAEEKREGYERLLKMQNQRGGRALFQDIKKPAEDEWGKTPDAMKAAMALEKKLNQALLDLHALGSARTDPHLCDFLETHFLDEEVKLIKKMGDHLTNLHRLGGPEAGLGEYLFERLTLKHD
UniProt Q9BQS8: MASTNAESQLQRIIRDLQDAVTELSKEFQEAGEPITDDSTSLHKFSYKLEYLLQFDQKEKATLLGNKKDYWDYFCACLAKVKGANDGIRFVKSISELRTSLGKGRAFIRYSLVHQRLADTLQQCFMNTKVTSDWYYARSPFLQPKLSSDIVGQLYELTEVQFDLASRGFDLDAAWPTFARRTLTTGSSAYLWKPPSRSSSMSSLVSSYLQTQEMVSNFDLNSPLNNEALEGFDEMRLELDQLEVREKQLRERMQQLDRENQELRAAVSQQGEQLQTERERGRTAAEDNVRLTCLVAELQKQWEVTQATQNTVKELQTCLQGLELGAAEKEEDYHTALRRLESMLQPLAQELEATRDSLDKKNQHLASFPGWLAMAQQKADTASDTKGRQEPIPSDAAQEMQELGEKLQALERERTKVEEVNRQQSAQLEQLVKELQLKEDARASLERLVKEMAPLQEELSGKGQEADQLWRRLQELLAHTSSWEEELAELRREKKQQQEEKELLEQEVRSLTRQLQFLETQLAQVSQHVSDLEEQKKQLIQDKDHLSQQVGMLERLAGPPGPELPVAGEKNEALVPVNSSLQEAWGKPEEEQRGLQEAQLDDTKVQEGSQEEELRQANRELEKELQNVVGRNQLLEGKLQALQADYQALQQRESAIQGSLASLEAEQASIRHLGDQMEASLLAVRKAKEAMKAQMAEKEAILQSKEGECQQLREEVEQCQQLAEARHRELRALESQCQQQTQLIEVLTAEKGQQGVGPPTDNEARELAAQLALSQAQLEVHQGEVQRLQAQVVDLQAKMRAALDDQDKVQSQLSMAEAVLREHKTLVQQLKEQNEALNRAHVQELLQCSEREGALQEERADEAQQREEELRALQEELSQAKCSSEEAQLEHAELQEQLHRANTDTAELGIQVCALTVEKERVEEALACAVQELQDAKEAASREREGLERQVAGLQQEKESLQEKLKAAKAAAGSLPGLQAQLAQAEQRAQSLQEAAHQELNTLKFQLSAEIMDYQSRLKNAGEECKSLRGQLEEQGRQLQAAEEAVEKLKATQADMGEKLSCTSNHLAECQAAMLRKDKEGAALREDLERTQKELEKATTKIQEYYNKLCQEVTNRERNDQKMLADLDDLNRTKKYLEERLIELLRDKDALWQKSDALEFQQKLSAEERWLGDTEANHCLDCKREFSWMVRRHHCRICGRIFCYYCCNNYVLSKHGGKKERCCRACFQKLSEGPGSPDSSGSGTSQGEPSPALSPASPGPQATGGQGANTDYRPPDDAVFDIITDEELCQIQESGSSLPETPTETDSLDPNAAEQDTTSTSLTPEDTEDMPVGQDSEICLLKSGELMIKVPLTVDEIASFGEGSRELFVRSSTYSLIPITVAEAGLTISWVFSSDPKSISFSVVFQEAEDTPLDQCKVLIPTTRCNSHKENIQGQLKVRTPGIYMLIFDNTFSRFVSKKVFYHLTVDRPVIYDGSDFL
UniProt P04406: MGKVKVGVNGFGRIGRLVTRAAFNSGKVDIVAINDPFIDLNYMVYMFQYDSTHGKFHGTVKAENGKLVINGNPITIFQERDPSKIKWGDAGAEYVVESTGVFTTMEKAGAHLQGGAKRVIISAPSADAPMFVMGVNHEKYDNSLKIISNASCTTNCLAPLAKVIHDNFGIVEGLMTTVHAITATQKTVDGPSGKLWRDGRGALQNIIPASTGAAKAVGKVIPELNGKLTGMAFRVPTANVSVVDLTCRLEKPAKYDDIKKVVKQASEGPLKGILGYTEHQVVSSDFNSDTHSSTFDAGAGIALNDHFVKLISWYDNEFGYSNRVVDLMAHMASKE
UniProt Q92616, whole entry, looked up: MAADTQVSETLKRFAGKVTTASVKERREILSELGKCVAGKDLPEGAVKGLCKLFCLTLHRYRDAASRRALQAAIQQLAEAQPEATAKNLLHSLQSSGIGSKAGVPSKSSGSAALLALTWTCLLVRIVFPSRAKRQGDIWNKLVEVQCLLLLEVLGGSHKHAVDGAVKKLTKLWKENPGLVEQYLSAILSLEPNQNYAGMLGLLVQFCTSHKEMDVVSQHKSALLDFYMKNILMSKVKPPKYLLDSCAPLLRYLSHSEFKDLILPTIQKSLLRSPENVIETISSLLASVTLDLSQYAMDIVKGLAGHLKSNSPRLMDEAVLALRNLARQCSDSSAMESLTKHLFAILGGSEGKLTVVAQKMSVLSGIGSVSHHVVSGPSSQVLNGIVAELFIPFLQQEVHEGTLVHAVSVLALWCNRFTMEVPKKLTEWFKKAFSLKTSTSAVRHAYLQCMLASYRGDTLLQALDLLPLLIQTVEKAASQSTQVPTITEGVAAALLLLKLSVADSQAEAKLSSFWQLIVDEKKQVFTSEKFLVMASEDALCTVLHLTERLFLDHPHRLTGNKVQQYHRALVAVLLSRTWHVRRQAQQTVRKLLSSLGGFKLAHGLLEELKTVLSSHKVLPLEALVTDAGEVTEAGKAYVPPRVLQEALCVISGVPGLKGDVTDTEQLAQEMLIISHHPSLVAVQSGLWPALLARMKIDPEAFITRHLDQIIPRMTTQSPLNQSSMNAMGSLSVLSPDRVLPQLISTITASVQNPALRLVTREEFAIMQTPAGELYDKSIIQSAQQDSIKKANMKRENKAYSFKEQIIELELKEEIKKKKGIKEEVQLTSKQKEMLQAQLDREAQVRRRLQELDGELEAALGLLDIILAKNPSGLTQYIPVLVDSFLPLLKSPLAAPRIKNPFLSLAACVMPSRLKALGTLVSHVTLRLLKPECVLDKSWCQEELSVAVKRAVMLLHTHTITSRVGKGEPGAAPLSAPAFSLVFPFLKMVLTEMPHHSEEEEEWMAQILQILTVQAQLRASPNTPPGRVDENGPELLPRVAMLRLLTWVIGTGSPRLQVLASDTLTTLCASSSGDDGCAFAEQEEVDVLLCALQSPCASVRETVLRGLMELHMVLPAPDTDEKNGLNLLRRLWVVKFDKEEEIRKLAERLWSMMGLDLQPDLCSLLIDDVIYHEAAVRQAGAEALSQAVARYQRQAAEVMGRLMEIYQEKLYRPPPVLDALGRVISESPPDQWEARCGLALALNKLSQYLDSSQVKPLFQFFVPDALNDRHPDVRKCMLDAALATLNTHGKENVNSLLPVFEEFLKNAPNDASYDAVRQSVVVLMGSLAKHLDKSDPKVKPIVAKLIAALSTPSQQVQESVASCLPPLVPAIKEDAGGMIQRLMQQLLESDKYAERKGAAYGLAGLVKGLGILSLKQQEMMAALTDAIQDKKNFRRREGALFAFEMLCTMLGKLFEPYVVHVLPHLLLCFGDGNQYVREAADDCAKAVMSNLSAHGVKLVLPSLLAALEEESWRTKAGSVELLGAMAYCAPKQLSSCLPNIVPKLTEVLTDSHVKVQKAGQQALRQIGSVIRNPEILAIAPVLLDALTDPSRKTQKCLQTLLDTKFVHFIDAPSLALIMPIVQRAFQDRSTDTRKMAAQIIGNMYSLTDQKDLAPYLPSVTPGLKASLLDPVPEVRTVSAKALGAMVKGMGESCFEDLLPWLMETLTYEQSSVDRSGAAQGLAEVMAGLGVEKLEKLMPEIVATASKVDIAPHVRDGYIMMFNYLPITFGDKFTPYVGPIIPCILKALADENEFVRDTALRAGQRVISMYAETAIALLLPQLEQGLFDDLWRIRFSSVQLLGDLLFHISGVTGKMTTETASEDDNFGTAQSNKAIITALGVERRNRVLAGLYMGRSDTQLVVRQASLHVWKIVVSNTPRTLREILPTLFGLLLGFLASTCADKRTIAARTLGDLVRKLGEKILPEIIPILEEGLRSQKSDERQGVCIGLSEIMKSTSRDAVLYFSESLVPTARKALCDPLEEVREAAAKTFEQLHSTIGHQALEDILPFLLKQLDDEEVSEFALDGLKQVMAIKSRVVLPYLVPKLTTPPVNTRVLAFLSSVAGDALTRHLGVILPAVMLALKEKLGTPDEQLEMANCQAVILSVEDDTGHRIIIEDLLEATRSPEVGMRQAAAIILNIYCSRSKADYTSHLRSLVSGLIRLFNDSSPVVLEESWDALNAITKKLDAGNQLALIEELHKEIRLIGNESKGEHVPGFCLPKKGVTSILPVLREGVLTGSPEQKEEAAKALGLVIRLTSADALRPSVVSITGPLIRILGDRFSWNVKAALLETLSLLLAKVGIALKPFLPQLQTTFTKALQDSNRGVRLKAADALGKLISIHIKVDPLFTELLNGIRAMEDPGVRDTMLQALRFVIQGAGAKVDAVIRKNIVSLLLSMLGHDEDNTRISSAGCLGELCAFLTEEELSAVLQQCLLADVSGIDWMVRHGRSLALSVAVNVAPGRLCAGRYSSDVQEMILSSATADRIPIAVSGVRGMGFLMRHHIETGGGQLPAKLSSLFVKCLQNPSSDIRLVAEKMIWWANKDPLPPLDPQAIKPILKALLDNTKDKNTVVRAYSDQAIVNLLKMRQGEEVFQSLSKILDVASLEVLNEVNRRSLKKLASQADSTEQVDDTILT
UniProt Q06547, whole entry, looked up: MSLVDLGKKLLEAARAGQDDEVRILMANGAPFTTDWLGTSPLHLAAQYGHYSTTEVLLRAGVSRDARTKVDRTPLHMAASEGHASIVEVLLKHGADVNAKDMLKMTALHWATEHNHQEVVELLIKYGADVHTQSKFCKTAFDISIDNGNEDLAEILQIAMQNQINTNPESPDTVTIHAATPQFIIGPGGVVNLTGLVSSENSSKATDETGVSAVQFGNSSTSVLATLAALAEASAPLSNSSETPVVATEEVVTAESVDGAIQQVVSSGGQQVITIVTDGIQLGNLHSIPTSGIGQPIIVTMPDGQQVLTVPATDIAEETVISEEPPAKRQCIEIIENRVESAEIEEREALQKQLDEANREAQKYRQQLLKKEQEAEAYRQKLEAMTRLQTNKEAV
UniProt Q9C0B1, whole entry, looked up: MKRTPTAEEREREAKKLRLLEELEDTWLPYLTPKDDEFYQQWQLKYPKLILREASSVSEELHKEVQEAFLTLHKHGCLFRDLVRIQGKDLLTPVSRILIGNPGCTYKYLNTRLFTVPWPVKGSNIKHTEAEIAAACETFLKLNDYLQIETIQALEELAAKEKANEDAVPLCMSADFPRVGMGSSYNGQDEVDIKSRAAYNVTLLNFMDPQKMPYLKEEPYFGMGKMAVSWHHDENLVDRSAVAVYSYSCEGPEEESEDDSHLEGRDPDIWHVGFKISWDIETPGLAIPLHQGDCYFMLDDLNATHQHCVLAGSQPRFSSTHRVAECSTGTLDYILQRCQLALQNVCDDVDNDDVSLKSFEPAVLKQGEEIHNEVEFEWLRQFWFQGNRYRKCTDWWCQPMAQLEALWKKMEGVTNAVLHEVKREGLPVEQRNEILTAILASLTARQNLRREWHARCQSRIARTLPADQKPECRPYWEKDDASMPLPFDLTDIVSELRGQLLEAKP

[2] = compound: CN1CCc2c(c3ccccc3n2Cc2ccc(C(=O)NO)cc2)C1 [Tubastatin A]
Outline: as §1

[3] = compound: CNC(=O)C1=CC=CC=C1NC2=NC(=NC=C2Cl)NC3=C(C=C(C=C3)N4CCOCC4)OC
Outline: as §1

[4] = compound: CNC(=O)c1ccc(Nc2ncc(C(F)(F)F)c(NCc3nccnc3N(C)S(C)(=O)=O)n2)cc1 [defactinib]
Outline: as §1

[5] = compound: CNc1nc(-c2ccc3c(N)n[nH]c3c2)cc(N2C[C@@H](C(=O)NC3CCCCC3)CC[C@H]2C)n1
Outline: as §1

[6] = compound: COC(=O)N[C@@H](C)CNc1nccc(-c2cn(C(C)C)nc2-c2cc(Cl)cc(NS(C)(=O)=O)c2F)n1 [encorafenib]
Outline: as §1

[7] = compound: COC(=O)[C@H](CCSC)NC(=O)C1=C(C=C(C=C1)NC[C@H](CS)N)C2=CC=CC=C2
Outline: as §1

[8] = compound: COc1cc(Nc2ncc3c(n2)-c2ccc(Cl)cc2C(c2c(F)cccc2OC)=NC3)ccc1C(=O)O [alisertib]
Outline: as §1

[9] = compound: COc1cc2nc(-c3cc(F)ccc3O)nc(N[C@@H]3CNC[C@H]3C(C)(C)O)c2cc1OC
Outline: as §1

[10] = compound: COc1cc2ncnc(Nc3ccc(F)c(Cl)c3)c2cc1OCCCN1CCOCC1 [gefitinib]
Outline: as §1

[11] = compound: CS(=O)(=O)CCNCc1ccc(-c2ccc3ncnc(Nc4ccc(OCc5cccc(F)c5)c(Cl)c4)c3c2)o1 [lapatinib]
Outline: as §1

[12] = compound: CS(=O)(=O)N1CCN(Cc2cc3nc(-c4cccc5[nH]ncc45)nc(N4CCOCC4)c3s2)CC1 [pictilisib]
Outline: as §1

[13] = compound: C[C@@H](Oc1cc(-c2cnn(C3CCNCC3)c2)cnc1N)c1c(Cl)ccc(F)c1Cl [crizotinib]
Outline: as §1

[14] = compound: C[C@H](C1=CC=C(C=C1)C(=O)NC2=C3C=CNC3=NC=C2)N
Outline: as §1

[15] = compound: C[C@H](Nc1ncnc2nc[nH]c12)c1cc2cccc(Cl)c2c(=O)n1-c1ccccc1 [duvelisib]
Outline: as §1

[16] = compound: Cc1cc(Nc2cc(CN3CCOCC3)c3nc(C)c(Cc4ccc(Cl)cc4F)n3n2)n[nH]1 [gandotinib]
Outline: as §1

[17] = compound: Cc1cc(Nc2cc(N3CCN(C)CC3)nc(Sc3ccc(NC(=O)C4CC4)cc3)n2)n[nH]1 [tozasertib]
Outline: as §1

[18] = compound: Cc1ccc(-n2nc(C(C)(C)C)cc2NC(=O)Nc2ccc(OCCN3CCOCC3)c3ccccc23)cc1 [doramapimod]
Outline: as §1

[19] = compound: Cc1ccc(NC(=O)c2ccc(CN3CC[C@H](N(C)C)C3)c(C(F)(F)F)c2)cc1Nc1nccc(-c2cncnc2)n1 [bafetinib]
Outline: as §1

[20] = compound: Cc1cccc(CC(=O)N2CCc3c2ccc(-c2cn(C)c4ncnc(N)c24)c3F)n1
Outline: as §1

Measured: log2 fold change

FXR1 (UniProt P51114)
inactive: [1] -0.028 | [2] -0.176 | [3] 0.02 | [4] -0.043 | [5] -0.039 | [6] 0.057 | [7] 0.035 | [8] -0.012 | [9] 0.012 | [10] -0.022 | [11] -0.026 | [12] -0.052 | [13] -0.006 | [14] -0.106 | [15] 0.023 | [16] -0.02 | [17] 0.008 | [18] 0.065 | [19] -0.03 | [20] 0.05

GALNS (UniProt P34059)
inactive: [1] -0.071 | [2] -0.015 | [3] 0.01 | [4] -0.03 | [5] 0.014 | [6] 0.008 | [7] 0.026 | [8] -0.016 | [9] 0.047 | [10] -0.023 | [11] 0.003 | [12] -0.003 | [13] 0.055 | [14] -0.033 | [15] -0.014 | [16] 0.059 | [17] 0.01 | [18] -0.024 | [19] -0.027 | [20] 0.004

GABARAP (UniProt O95166)
inactive: [1] 0.067 | [2] -0.01 | [3] -0.072 | [4] 0.108 | [5] -0.071 | [6] -0.023 | [7] 0.028 | [8] 0.033 | [9] -0.018 | [10] -0.038 | [11] -0.025 | [12] -0.098 | [13] 0.083 | [14] -0.042 | [15] -0.142 | [16] 0.017 | [17] -0.052 | [18] -0.012 | [19] 0.036 | [20] -0.159

GCFC2 (UniProt P16383)
inactive: [1] 0 | [2] -0.052 | [3] 0.076 | [4] 0.078 | [5] -0.021 | [6] 0.008 | [7] 0.011 | [8] -0.002 | [9] -0.004 | [10] 0.026 | [11] 0.041 | [12] 0.051 | [13] -0.013 | [14] 0.013 | [15] 0.025 | [16] -0.042 | [17] -0.003 | [18] -0.042 | [19] -0.096 | [20] -0.016

GCC1 (UniProt Q96CN9)
inactive: [1] -0.001 | [2] 0.012 | [3] -0.021 | [4] 0.006 | [5] -0.012 | [6] 0.028 | [7] -0.013 | [8] 0.062 | [9] 0.027 | [10] 0.011 | [11] -0.004 | [12] 0.007 | [13] -0.092 | [14] 0.126 | [15] 0.035 | [16] -0.083 | [17] 0.103 | [18] 0.037 | [19] -0.054 | [20] 0.009

FUCA2 (UniProt Q9BTY2)
inactive: [1] -0.086 | [2] 0.039 | [3] -0.017 | [4] -0.01 | [5] 0.037 | [6] 0.021 | [7] -0.052 | [8] 0.007 | [9] 0.013 | [10] 0 | [11] -0.003 | [12] -0.038 | [13] 0.009 | [14] -0.186 | [15] -0.004 | [16] 0.122 | [17] -0.042 | [18] 0.01 | [19] -0.013 | [20] 0.08

FTL (UniProt P02792)
inactive: [1] 0.013 | [2] 0.187 | [3] -0.04 | [4] 0.15 | [5] -0.097 | [6] 0.145 | [7] -0.076 | [8] 0.067 | [9] 0.007 | [10] -0.024 | [11] -0.072 | [12] -0.027 | [13] -0.066 | [14] -0.022 | [15] -0.001 | [16] 0.068 | [17] 0.008 | [18] -0.024 | [19] -0.052 | [20] -0.018

FYCO1 isoform 4 (UniProt Q9BQS8)
inactive: [1] -0.052 | [2] 0 | [3] -0.001 | [4] -0.002 | [5] -0.006 | [6] 0.033 | [7] 0.024 | [8] 0.018 | [9] 0.018 | [10] 0.016 | [11] -0.005 | [12] -0.018 | [13] -0.018 | [14] -0.114 | [15] 0.036 | [16] 0.229 | [17] 0.021 | [18] -0.009 | [19] -0.019 | [20] 0.176

GAPDH (UniProt P04406)
inactive: [1] 0.01 | [2] 0.046 | [3] 0 | [4] 0.012 | [5] 0.018 | [6] -0.045 | [7] -0.006 | [8] -0.039 | [9] -0.001 | [10] -0.026 | [11] 0.005 | [12] -0.024 | [13] 0.066 | [14] 0.043 | [15] 0.003 | [16] -0.002 | [17] -0.005 | [18] -0.031 | [19] 0.055 | [20] -0.082

GCN1 (UniProt Q92616)
inactive: [1] 0.036 | [2] -0.181 | [3] 0.001 | [4] 0.037 | [5] -0.023 | [6] 0.014 | [7] 0.147 | [8] 0.023 | [9] 0.006 | [10] -0.004 | [11] -0.034 | [12] -0.027 | [13] -0.125 | [14] -0.002 | [15] 0.008 | [16] -0.121 | [17] 0.017 | [18] 0.019 | [19] -0.049 | [20] 0.053

Copied from the listing (2 entries):
GCFC2 (UniProt P16383)
inactive: [1] 0 | [2] -0.052 | [3] 0.076 | [4] 0.078 | [5] -0.021 | [6] 0.008 | [7] 0.011 | [8] -0.002 | [9] -0.004 | [10] 0.026 | [11] 0.041 | [12] 0.051 | [13] -0.013 | [14] 0.013 | [15] 0.025 | [16] -0.042 | [17] -0.003 | [18] -0.042 | [19] -0.096 | [20] -0.016

GCC1 (UniProt Q96CN9)
inactive: [1] -0.001 | [2] 0.012 | [3] -0.021 | [4] 0.006 | [5] -0.012 | [6] 0.028 | [7] -0.013 | [8] 0.062 | [9] 0.027 | [10] 0.011 | [11] -0.004 | [12] 0.007 | [13] -0.092 | [14] 0.126 | [15] 0.035 | [16] -0.083 | [17] 0.103 | [18] 0.037 | [19] -0.054 | [20] 0.009

Additional records

GAMT (UniProt Q14353)
inactive: [1] 0.025 | [2] -0.059 | [3] 0.055 | [4] 0.068 | [5] 0.038 | [6] -0.028 | [7] 0.039 | [8] 0.018 | [9] -0.021 | [10] -0.035 | [11] 0.02 | [12] -0.028 | [13] 0 | [14] 0.02 | [15] 0.082 | [16] 0.002 | [17] -0.02 | [18] 0.09 | [19] 0.062 | [20] -0.046

GADD45GIP1 (UniProt Q8TAE8)
inactive: [1] -0.008 | [2] 0.037 | [3] -0.101 | [4] 0.006 | [5] 0.066 | [6] 0.005 | [7] 0.04 | [8] 0.024 | [9] -0.033 | [10] -0.003 | [11] 0.003 | [12] 0.007 | [13] -0.008 | [14] -0.063 | [15] 0.03 | [16] 0.03 | [17] 0.002 | [18] 0.041 | [19] 0.043 | [20] 0.009

GALK2 (UniProt Q01415)
inactive: [1] -0.002 | [2] 0.052 | [3] -0.03 | [4] -0.028 | [5] 0.065 | [6] -0.014 | [7] -0.039 | [8] -0.012 | [9] -0.004 | [10] -0.015 | [11] -0.003 | [12] 0 | [13] 0.002 | [14] -0.033 | [15] 0.049 | [16] -0.002 | [17] 0.039 | [18] -0.004 | [19] 0.025 | [20] 0.001

GABPB1 (UniProt Q06547)
inactive: [1] 0.181 | [2] -0.001 | [3] -0.028 | [4] 0.005 | [5] 0 | [6] 0.036 | [7] 0.097 | [8] -0.016 | [9] -0.043 | [10] 0.024 | [11] -0.042 | [12] -0.052 | [13] 0.021 | [14] 0.192 | [15] 0.018 | [16] -0.194 | [17] -0.004 | [18] 0.026 | [19] -0.071 | [20] -0.082

GCAT isoform 2 (UniProt O75600)
inactive: [1] 0.034 | [2] -0.007 | [3] 0.004 | [4] -0.025 | [5] 0.031 | [6] 0.026 | [7] -0.031 | [8] 0.015 | [9] -0.019 | [10] 0.015 | [11] 0.028 | [12] -0.095 | [13] 0.018 | [14] 0.014 | [15] 0.034 | [16] -0.038 | [17] -0.028 | [18] 0.027 | [19] 0 | [20] -0.038

FTO (UniProt Q9C0B1)
inactive: [1] -0.003 | [2] -0.03 | [3] -0.001 | [4] -0.027 | [5] 0.026 | [6] -0.023 | [7] -0.006 | [8] 0.002 | [9] -0.008 | [10] -0.002 | [11] -0.016 | [12] -0.047 | [13] -0.006 | [14] -0.039 | [15] -0.012 | [16] 0.036 | [17] 0.011 | [18] -0.012 | [19] -0.011 | [20] 0.02

From the supplement of paper PMC10849652
